# Results reported in article PMC10070696.
# These are yes or no findings as the source states them, for the method shown. In cells and extracts the contact can be indirect. Tags and fused reporters may be left off the sequences shown.
# T1: cLUC-ICE1 (Arabidopsis thaliana) (UniProt Q9LSE2)
# T1 sequence: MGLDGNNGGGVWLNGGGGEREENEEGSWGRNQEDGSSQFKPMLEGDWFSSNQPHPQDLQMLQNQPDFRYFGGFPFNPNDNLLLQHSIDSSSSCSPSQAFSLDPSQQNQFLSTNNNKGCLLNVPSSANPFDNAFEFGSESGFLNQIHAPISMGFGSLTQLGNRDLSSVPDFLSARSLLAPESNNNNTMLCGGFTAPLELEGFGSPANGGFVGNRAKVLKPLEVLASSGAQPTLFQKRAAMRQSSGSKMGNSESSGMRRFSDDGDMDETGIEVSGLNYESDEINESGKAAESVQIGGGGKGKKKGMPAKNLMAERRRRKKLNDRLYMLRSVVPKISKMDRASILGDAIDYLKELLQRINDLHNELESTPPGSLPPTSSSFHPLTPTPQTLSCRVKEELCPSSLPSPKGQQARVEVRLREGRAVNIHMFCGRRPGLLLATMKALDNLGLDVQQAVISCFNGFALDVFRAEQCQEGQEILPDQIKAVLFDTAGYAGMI
# T2: cCFP-ICE1 (Arabidopsis thaliana) (UniProt Q9LSE2)
# T2 sequence: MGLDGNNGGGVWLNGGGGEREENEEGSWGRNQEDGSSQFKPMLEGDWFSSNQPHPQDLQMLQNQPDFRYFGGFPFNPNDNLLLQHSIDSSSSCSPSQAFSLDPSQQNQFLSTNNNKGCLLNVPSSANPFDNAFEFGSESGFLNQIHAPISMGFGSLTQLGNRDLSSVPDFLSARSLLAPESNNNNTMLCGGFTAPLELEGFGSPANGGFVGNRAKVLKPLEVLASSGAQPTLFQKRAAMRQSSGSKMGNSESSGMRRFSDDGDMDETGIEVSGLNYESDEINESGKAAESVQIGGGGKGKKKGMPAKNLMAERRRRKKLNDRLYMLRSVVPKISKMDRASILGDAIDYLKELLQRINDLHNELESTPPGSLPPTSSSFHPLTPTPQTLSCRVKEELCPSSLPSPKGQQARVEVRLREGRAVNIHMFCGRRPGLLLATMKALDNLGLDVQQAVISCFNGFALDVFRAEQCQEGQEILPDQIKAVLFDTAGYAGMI
# Tests used:
# [1] = biological target: T1, cLUC-ICE1 (Arabidopsis thaliana); assay: split reporter; firefly luciferase complementation imaging (LCI): nLUC and cLUC fusions co-expressed in tobacco leaves at 22°C for about 48 h, 1 mM D-luciferin sprayed, low-light imaging
# [2] = biological target: T2, cCFP-ICE1 (Arabidopsis thaliana); assay: split reporter; BiFC: nYFP and cCFP fusions co-expressed for about 48 h in tobacco (Nicotiana benthamiana) leaf epidermal cells, GFP signal by confocal microscopy
# [3] = biological target: cCFP (C-terminal half of cyan fluorescent protein) alone; assay: as above
# [4] = biological target: cLUC (C-terminal half of firefly luciferase) alone (firefly); assay: split reporter; firefly luciferase complementation imaging (LCI): nLUC and cLUC fusions co-expressed in tobacco leaves at 22°C for about 48 h, 1 mM D-luciferin sprayed, low-light imaging
molecule,measurement,setting,value
nLUC (N-terminal half of firefly luciferase) alone (domain or fragment),binding,[1],no binding
nYFP (N-terminal half of yellow fluorescent protein) alone (domain or fragment),binding,[2],no binding
"nYFP-LFR (protein, UniProt Q9LS90 1-460) MQKRELGKSGGNSGGSSGPPAKRGRPFGSTSANSAAAAAAAAAADAMSPSALLGPSLLVHNSFVEQNNRRIVLALQSGLKSEVTWALNTLTLLSFKEKEDIRRDVMPLAKIAGLLDALLLIIDDWRDIALPKDLTRGTRVRTLGTNASVTGFGNEYDALASIQPPGSGIGSSAAEALGKKSTGKHQSSQWWMEEDGLFNLDDEGRSEKQMCAIAASNVIRNFSFMPDNEVVMAQHRHCLETVFQCIHDHMTEDEELVTNSLETIVNLAHLMDLRIFSSLKQSYININEKKAVQAVVGILNSSVKAWNCAAAELLGRLIINPDNEPFISPLIPQIHKRLIDLLSIQAVDAQAAAVGALYNLVEVNMDCRLKLASERWAVDRLLKVIKTPHPVPEVCRKAAMILENLVSEPQNRGLLLAYENAFAELLFQEGKYSDSFARILYELTARSNSRVASARGIWGM",binding,[3],no binding
"LFR-nLUC (protein, UniProt Q9LS90 1-460) MQKRELGKSGGNSGGSSGPPAKRGRPFGSTSANSAAAAAAAAAADAMSPSALLGPSLLVHNSFVEQNNRRIVLALQSGLKSEVTWALNTLTLLSFKEKEDIRRDVMPLAKIAGLLDALLLIIDDWRDIALPKDLTRGTRVRTLGTNASVTGFGNEYDALASIQPPGSGIGSSAAEALGKKSTGKHQSSQWWMEEDGLFNLDDEGRSEKQMCAIAASNVIRNFSFMPDNEVVMAQHRHCLETVFQCIHDHMTEDEELVTNSLETIVNLAHLMDLRIFSSLKQSYININEKKAVQAVVGILNSSVKAWNCAAAELLGRLIINPDNEPFISPLIPQIHKRLIDLLSIQAVDAQAAAVGALYNLVEVNMDCRLKLASERWAVDRLLKVIKTPHPVPEVCRKAAMILENLVSEPQNRGLLLAYENAFAELLFQEGKYSDSFARILYELTARSNSRVASARGIWGM",binding,[4],no binding
